Results: patent US4192875 (dated 1980)

Assay: solution-phase peptide synthesis; diphenylphosphorylazide
Conditions: whole synthesis

cyclo-[(L-1-Carboxymethyl-3-amino-2-piperidone)yl]3
isolated mass: 1.02 g
isolated yield (scale of the general procedure 25.6 mmole): 26%
